# Results deposited as PubChem BioAssay AID1508597 (Cure First, 2020)
# Assay: 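Survival screen with siRNA in ovarian cancer cells derived from patients, with or without rucaparib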 (primary screen)
# System: human ovarian carcinoma lines grown from tumours: OCI-P5x (papillary serous) and OCI-C5x (clear cell)
# Reagents: siRNA pool against human genes, 1.25 pmol siRNA per well
# Time to read-out: 72 h or 96 h, depending on the cell culture
# Conditions: rucaparib 20 µM (about IC30) or vehicle, present until read-out
# Measurement: 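ATP luminescence measured at 72 or 96 h according to the culture, then normalised and expressed as percent viability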
# Reading the numbers: viability, normalised: higher = more viable cells remaining
# Active means: 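a well counts as a hit if its normalised viability is under 80 percent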
# Meaning of the calls: active = viability under 80%; inactive = viability 80% or more
# Here is one part, drawn at random, of about 2,100 reagents. 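Calls flag viability under 80% in either arm, not effects specific to rucaparib; the reference for percent is not stated.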 Unmarked entries are inactive. A reagent listed more than once was tested more than once; the source does not tell the runs apart. No sequences are given here. Not given: the 100% reference.
gene,PubChem SID,rucaparib or vehicle,cell line,technical replicate,"viability, normalised (%)"
CBX5,SID405528073,Rucaparib,OCI-C5x (clear cell),1,51.1 (active)
CBX5,SID405528073,Rucaparib,OCI-C5x (clear cell),1,69.4 (active)
CBX5,SID405528073,Rucaparib,OCI-C5x (clear cell),2,70.1 (active)
CBX5,SID405528073,Rucaparib,OCI-C5x (clear cell),2,58.2 (active)
CBX5,SID405528073,Rucaparib,OCI-C5x (clear cell),3,65.7 (active)
CBX5,SID405528073,Rucaparib,OCI-C5x (clear cell),3,38.8 (active)
CBX5,SID405528073,Rucaparib,OCI-P5x (serous),1,75.6 (active)
CBX5,SID405528073,Rucaparib,OCI-P5x (serous),1,87.6
CBX5,SID405528073,Rucaparib,OCI-P5x (serous),2,95.1
CBX5,SID405528073,Rucaparib,OCI-P5x (serous),2,88
CBX5,SID405528073,Rucaparib,OCI-P5x (serous),3,73.6 (active)
CBX5,SID405528073,Rucaparib,OCI-P5x (serous),3,79.4 (active)
CBX5,SID405528073,Vehicle,OCI-C5x (clear cell),1,49.6 (active)
CBX5,SID405528073,Vehicle,OCI-C5x (clear cell),1,45 (active)
CBX5,SID405528073,Vehicle,OCI-C5x (clear cell),2,46.6 (active)
CBX5,SID405528073,Vehicle,OCI-C5x (clear cell),2,44.3 (active)
CBX5,SID405528073,Vehicle,OCI-C5x (clear cell),3,35.7 (active)
CBX5,SID405528073,Vehicle,OCI-C5x (clear cell),3,34.7 (active)
CBX5,SID405528073,Vehicle,OCI-P5x (serous),1,74 (active)
CBX5,SID405528073,Vehicle,OCI-P5x (serous),1,68.1 (active)
CBX5,SID405528073,Vehicle,OCI-P5x (serous),2,69 (active)
CBX5,SID405528073,Vehicle,OCI-P5x (serous),2,75.1 (active)
CBX5,SID405528073,Vehicle,OCI-P5x (serous),3,96.7
CBX5,SID405528073,Vehicle,OCI-P5x (serous),3,67 (active)
PAPSS2,SID405527888,Rucaparib,OCI-C5x (clear cell),1,66.4 (active)
PAPSS2,SID405527888,Rucaparib,OCI-C5x (clear cell),2,49.7 (active)
PAPSS2,SID405527888,Rucaparib,OCI-C5x (clear cell),3,68.3 (active)
PAPSS2,SID405527888,Rucaparib,OCI-P5x (serous),1,141
PAPSS2,SID405527888,Rucaparib,OCI-P5x (serous),2,145
PAPSS2,SID405527888,Rucaparib,OCI-P5x (serous),3,102
PAPSS2,SID405527888,Vehicle,OCI-C5x (clear cell),1,65.1 (active)
PAPSS2,SID405527888,Vehicle,OCI-C5x (clear cell),2,49.3 (active)
PAPSS2,SID405527888,Vehicle,OCI-C5x (clear cell),3,57 (active)
PAPSS2,SID405527888,Vehicle,OCI-P5x (serous),1,100
PAPSS2,SID405527888,Vehicle,OCI-P5x (serous),2,84.3
PAPSS2,SID405527888,Vehicle,OCI-P5x (serous),3,86.3
CDK7,SID405527590,Rucaparib,OCI-C5x (clear cell),1,61.5 (active)
CDK7,SID405527590,Rucaparib,OCI-C5x (clear cell),1,76.5 (active)
CDK7,SID405527590,Rucaparib,OCI-C5x (clear cell),2,63.3 (active)
CDK7,SID405527590,Rucaparib,OCI-C5x (clear cell),2,66 (active)
CDK7,SID405527590,Rucaparib,OCI-C5x (clear cell),3,59.3 (active)
CDK7,SID405527590,Rucaparib,OCI-C5x (clear cell),3,66.5 (active)
CDK7,SID405527590,Rucaparib,OCI-P5x (serous),1,127
CDK7,SID405527590,Rucaparib,OCI-P5x (serous),1,60 (active)
CDK7,SID405527590,Rucaparib,OCI-P5x (serous),2,130
CDK7,SID405527590,Rucaparib,OCI-P5x (serous),2,68.7 (active)
CDK7,SID405527590,Rucaparib,OCI-P5x (serous),3,120
CDK7,SID405527590,Rucaparib,OCI-P5x (serous),3,53.4 (active)
CDK7,SID405527590,Vehicle,OCI-C5x (clear cell),1,54.9 (active)
CDK7,SID405527590,Vehicle,OCI-C5x (clear cell),1,49.7 (active)
CDK7,SID405527590,Vehicle,OCI-C5x (clear cell),2,64.6 (active)
CDK7,SID405527590,Vehicle,OCI-C5x (clear cell),2,47.5 (active)
CDK7,SID405527590,Vehicle,OCI-C5x (clear cell),3,58.2 (active)
CDK7,SID405527590,Vehicle,OCI-C5x (clear cell),3,55.9 (active)
CDK7,SID405527590,Vehicle,OCI-P5x (serous),1,54.6 (active)
CDK7,SID405527590,Vehicle,OCI-P5x (serous),1,96.7
CDK7,SID405527590,Vehicle,OCI-P5x (serous),2,103
CDK7,SID405527590,Vehicle,OCI-P5x (serous),2,66.5 (active)
CDK7,SID405527590,Vehicle,OCI-P5x (serous),3,78.5 (active)
CDK7,SID405527590,Vehicle,OCI-P5x (serous),3,103

Copied from the list.
PAPSS2 [SID405527888], rucaparib or vehicle Rucaparib, cell line OCI-C5x (clear cell), technical replicate 3, viability, normalised (%) = 68.3 (active)
PAPSS2 [SID405527888], rucaparib or vehicle Vehicle, cell line OCI-C5x (clear cell), technical replicate 2, viability, normalised (%) → 49.3 (active)
Result for PAPSS2 [SID405527888], rucaparib or vehicle Vehicle, cell line OCI-P5x (serous), technical replicate 2 in “viability, normalised (%)”: 84.3
For “viability, normalised (%)”, PAPSS2 [SID405527888], rucaparib or vehicle Rucaparib, cell line OCI-C5x (clear cell), technical replicate 2 is entered as 49.7 (active)
